Measured values: PubChem BioAssay AID651660 (Broad Institute, 2012)
Among all 1,900 compounds or so, about 15 (0.8%) were called active.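 How the source made its calls: active means every replicate shows at least 50% inhibition; inconclusive means mean inhibition at least 50% but some replicate below; inactive means the rest.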 Some of the results follow.

Protein sequences, listed by entry. Tags and fused reporters are not part of them. Lines headed by an entry give the natural chain unless they say otherwise; changes in a name come on top.
UniProt P43351: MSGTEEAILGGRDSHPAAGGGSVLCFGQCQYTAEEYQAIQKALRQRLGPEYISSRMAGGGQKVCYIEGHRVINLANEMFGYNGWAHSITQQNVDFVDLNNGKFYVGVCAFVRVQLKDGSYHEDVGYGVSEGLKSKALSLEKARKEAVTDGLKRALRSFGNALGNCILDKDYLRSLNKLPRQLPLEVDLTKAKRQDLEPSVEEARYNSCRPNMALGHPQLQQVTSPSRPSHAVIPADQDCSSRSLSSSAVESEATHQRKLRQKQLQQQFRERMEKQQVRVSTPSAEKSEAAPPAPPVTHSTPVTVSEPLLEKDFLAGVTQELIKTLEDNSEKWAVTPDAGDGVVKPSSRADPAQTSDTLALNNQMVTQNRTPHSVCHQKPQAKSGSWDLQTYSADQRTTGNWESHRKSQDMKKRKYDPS

These molecules were tested against DNA repair protein RAD52 homolog (Homo sapiens) (UniProt P43351) (assay: inhibition of RAD52-mediated strand annealing – biochemical, FRET, single point, primary screen (AID 651660;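 further: 0% = median of neutral control wells and 100% = median of positive control wells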)). Details: Recombinant RAD52 ssDNA annealing, FRET fluorescence, 30 min; at 18.7 µM; stronger effect = higher value.

inhibition, inactive:
Oc1ccc(/C=C/c2cc(O)cc(O)c2)cc1 2.23%
COc1ccc(C(=O)/C=C2/c3ccccc3CC(C)(C)N2C)cc1 -0.22%
O=C(CCC(=O)NCCO)NCCO 4.45%
CNc1nc(Nc2ccccc2)nc(OCC(F)(F)F)n1 0.049%
COc1cccc(OC)c1C(=O)NCCSC1CCCCC1 1.35%
Oc1c(Cl)cc(Cl)c(Cl)c1Cc1c(O)c(Cl)cc(Cl)c1Cl -0.573%
COc1cccc(-n2c(C)c3c(OC)cccc(=O)c3c2C)c1 -114%
COc1ccc2[nH]c3c(=O)n(/N=C/[C@H]4C(C)C=C(C)CC4C)c(=O)[nH]c3c2c1 (stereo partly drawn) -7.95%
COc1cc2c(cc1OC)C(c1cc(OC)c(OC)c(OC)c1)NCC2 (stereo not drawn) -6.09%
CSCCC(NC(=O)OC(C)(C)C)C(=O)Oc1ccc2c(=O)c(-c3ccc4c(c3)OCCO4)coc2c1 (stereo not drawn) 2.21%
CN(C)C(=O)C(CCN1CCC(O)(c2ccc(Cl)cc2)CC1)(c1ccccc1)c1ccccc1 11.1%
Cn1c(=O)[nH]c2nnc(-c3ccc(Cl)c(Cl)c3)nc2c1=O -2.22%
C=CCOc1ccc(C(=O)CC)cc1OC 16%
CC(C(=O)O)c1ccc(-c2ccccc2)c(F)c1 (stereo not drawn) -20.1%
O=C(CCCC(=O)OCC1CCCO1)OCC1CCCO1 (stereo not drawn) -2.58%
Cn1c(=O)c2nc3ccccc3nc2n(C)c1=O -13.2%
COc1ccc(/C=N\NC(=O)CCc2c(C)n[nH]c2C)c(OC)c1OC 7.8%
CC(=O)N1N=C(c2cccs2)CC1c1ccc(C)o1 (stereo not drawn) -4.26%
O=C(Cc1c[nH]c2ccccc12)OCCOC(=O)Cc1c[nH]c2ccccc12 2.87%
Cc1cc(=O)oc(C)c1C(=O)NCCC(C)C -7.13%
O=C(O)CC(O)C(=O)O (stereo not drawn) 4.23%
Cc1ccsc1/C=N\NC(=O)c1ccc2c(c1)OCO2 -4.72%
CNCCCC1c2ccccc2C=Cc2ccccc21 2.81%
CC(C)N(Cc1nccn1C)C(=O)CC1C(=O)NCCN1Cc1ccccc1C(F)(F)F (stereo not drawn) -12%
C[C@]12CCC(=O)C=C1CC[C@@H]1[C@@H]2[C@@H](O)C[C@@]2(C)[C@H]1CC[C@]2(O)C(=O)CO -8.66%
O=C(Nc1cccc(C(=O)O)c1)/C(=C\c1ccccc1)NC(=O)c1ccccc1 -4.18%
CC(=O)N1CCN(c2ccc(NC(=O)/C=C/c3ccccc3)cc2)CC1 -1.72%
COc1ccc(-c2coc3c(CN4CCOCC4)c(O)ccc3c2=O)cc1 7.99%
N/C(=N\OC(=O)c1cccc(Br)c1)c1ccncc1 4.52%
O=C(NC1CC1)C1CCN(C2CCN(C(=O)Cc3ccc(F)cc3)CC2)CC1 -24.2%
COC(=O)CN1C(=S)N(c2ccc(F)cc2)C(=O)C1CC(=O)Nc1ccccc1 (stereo not drawn) -1.21%
COc1ccc(CCN(C)CCCC(C#N)(c2ccc(OC)c(OC)c2)C(C)C)cc1OC (stereo not drawn) 10.9%
CCCc1cc(=O)[nH]c(=S)[nH]1 -9.29%
CCOC(=O)C(=O)Nc1ccc(Oc2ccccc2)cc1 1.4%
COc1ccccc1C(=O)Nc1cc2cc(Br)ccc2oc1=O -5.75%
CCCCC(=O)O[C@H]1CC[C@H]2[C@@H]3CCc4cc(O)ccc4[C@H]3CC[C@]12C -4.64%
N=C(N)c1ccc(OCCCCCOc2ccc(C(=N)N)cc2)cc1 17.2%
CCN(CC)CCN1C(=O)C(=O)/C(=C(/O)c2c(C)[nH]c(C(=O)OC)c2C)C1c1cccnc1 (stereo not drawn) 5.33%
CC(=O)C1=C(O)C(=O)N(CC(=O)O)C1c1ccccc1Cl (stereo not drawn) -2.25%
CC/C(=C1/C(=O)CC(C)(C)C(C(=O)OC)C1=O)N1CCCC1 (stereo not drawn) -6.04%
CC(=O)c1c(N)nc2n(c1=O)CCCCC2 2.15%
O=C(O)[C@@H](O)c1ccccc1 -3.32%
C/C(CCc1oc2ccc(Cl)cc2c1-c1ccc(C)o1)=N\O -11.8%
Nc1nc(Cl)nc2c1ncn2[C@H]1C[C@H](O)[C@@H](CO)O1 -10.2%
CN(Cc1c(C(=O)N(C)Cc2ccccc2)nc2ccccn12)CC1Cc2ccccc2O1 (stereo not drawn) -5.82%
N/C(Cc1ccc(Cl)cc1Cl)=N\OC(=O)c1ccc(Br)o1 -2.4%
c1ccc2c(c1)CCOC2CNCCCN1CCCCC1 (stereo not drawn) 10.7%
OCCC1CN(Cc2nc(-c3ccccc3)cs2)CCN1Cc1ccc(F)cc1 (stereo not drawn) -12.9%
CCN1C(=O)C(CC(=O)Nc2ccc(OC)cc2)N(CCc2ccc(F)cc2)C1=S (stereo not drawn) 10.5%
CC1(C)Oc2ccc(C#N)cc2[C@@H](N2CCCC2=O)[C@@H]1O -2.72%
CC[N+](C)(C)Cc1ccccc1Br 0.172%
O=C(NCc1ccccc1Cl)NC(=O)c1ccccc1 -5.59%
Cc1oncc1C(=O)Nc1ccc(C(F)(F)F)cc1 1.57%
COc1ccc(C(Cl)=C(c2ccc(OC)cc2)c2ccc(OC)cc2)cc1 3.47%
O=C(O)c1cccnc1Nc1cccc(C(F)(F)F)c1 -14.4%
C[C@]12CCC(=O)C=C1[C@H](O)C[C@@H]1[C@@H]2[C@@H](O)C[C@@]2(C)[C@H]1CC[C@]2(O)C(=O)CO -6.84%
Cc1[nH]nc(-c2ccc(O)cc2O)c1Oc1ccccc1 0.257%
CC(CCc1ccccc1)NCC(O)c1ccc(O)c(C(N)=O)c1 (stereo not drawn) 0.728%
CCc1cc2c(=O)c(-c3ccc4c(c3)OCCO4)coc2c(CN2CCCCC2C)c1O (stereo not drawn) 8.37%
Cc1ccc(Cl)c(OCCCN(C)Cc2ccccc2)c1 5.98%
Cn1c(SCC(=O)c2ccccc2)nnc1-c1ccncc1 -2.42%
CN(C)CCCN1c2ccccc2Sc2ccccc21 7.51%
Cc1cc(C(C)(C)C)c(O)c(C)c1CC1=NCCN1 -10.1%
Nc1c(C(=O)c2ccccc2)oc2ccccc12 -6.4%
C[C@]12CC[C@@H]3c4ccc(O)cc4CC[C@H]3[C@@H]1CC[C@@H]2OC(=O)CCC(=O)O -1.23%
CC(=O)N(CCC(Cc1ccccc1)c1ccco1)Cc1ccco1 (stereo not drawn) -17.2%
O=C(NCc1ccc(N2CCCC2=O)cc1)c1cccc(Cl)c1 0.043%
Cc1ccc2c(c1)c1c3n2CCCNC3CCC1 (stereo not drawn) 2.29%
COc1ccc(C2N3CC4(C)CN2CC(C)(C3)C4)cc1OC (stereo not drawn) 0.63%
CCC(=O)Oc1ccc(/C(CC)=C(\CC)c2ccc(OC(=O)CC)cc2)cc1 -4.46%
COc1ccc2c(c1OC)C(=O)OC2C1c2c(cc3c(c2OC)OCO3)CCN1C (stereo not drawn) 3.26%
COc1ccc(CCNC(=O)c2ccc(Cl)cc2)cc1OC -3.26%
CCCN1C[C@H](CSC)C[C@@H]2c3cccc4[nH]cc(c34)C[C@H]21 9.59%
Nc1cccc(C(=O)O)c1 4.25%
COc1cc(CNCc2ccc(OC)c(OC)c2OC)cc(OC)c1 -2.96%
CCN1C(=O)C(CC(=O)Nc2ccc(F)cc2)N(Cc2ccco2)C1=S (stereo not drawn) -9.52%
COc1ccc2[nH]cc(C(=O)CCl)c2c1 3.43%
Cc1[nH]c2ccccc2c1/C=C/c1nc2ccccc2c(=O)n1CCO -5.68%
O=C(Nc1ccccc1)c1ccccc1CCc1ccccc1 -0.492%
Cc1ccc(CN2CCN(CCCc3ccccc3)CC2CCO)cc1 (stereo not drawn) -4.16%
CCN(Cc1cnn(C)c1)Cc1nc(C(c2ccccc2)c2ccccc2)no1 1.94%
CC1=C(/C=C/C(C)=C/C=C/C(C)=C/C(=O)O)C(C)(C)CCC1 -5.74%
Cc1cc(=O)oc2cc(OC(C)C(=O)NCC3CCCO3)ccc12 (stereo not drawn) -5.47%
CCO/C([O-])=N/c1c[n+](N2CCOCC2)no1 -1%
COc1cc(C(=O)NCCCCCC(=O)O)cc(OC)c1OC 0.198%
COCCOC(=O)c1c(C)oc2ccc(OCc3cc(C(=O)OC)oc3C)cc12 -1.18%
O=C1C(=O)c2ccccc2C(O)=C1c1ccccc1F 9.88%
COc1cc(OC)c(C2C(C#N)=C(N)OC3=C2C(=O)CC(C)(C)C3)cc1OC (stereo not drawn) -2.55%
COc1ccc(C(=O)Oc2ccc3c(C)cc(=O)oc3c2C(C)=O)cc1 -5.82%
NS(=O)(=O)c1ccc(CNC(=O)c2cc(-c3ccccc3)nc3ccccc23)cc1 4.47%
Fc1ccc(NC(=S)Nc2ccccc2Cl)cc1 1.13%
O=C(O)C1Sc2[nH]c(=O)sc2C2c3ccc(O)cc3OC(=O)C12 (stereo not drawn) -468%
COc1ccc(C2NC(=O)c3ccccc3N2)cc1OC (stereo not drawn) -8.83%
COc1cc2c(cc1OC)C(=S)NC(C)(C)C2 -8.97%
CN1C(=O)C(O)(CC(=O)c2ccccc2O)c2cc(Br)ccc21 (stereo not drawn) -5.35%
O=C(/C=C/c1ccco1)N1CCN(c2ccccc2)CC1 -28.2%

Part of the list above in order of SMILES length, falling.
inhibition, inactive:
COc1ccc2[nH]c3c(=O)n(/N=C/[C@H]4C(C)C=C(C)CC4C)c(=O)[nH]c3c2c1 (stereo partly drawn) -7.95%
COc1ccc(CCN(C)CCCC(C#N)(c2ccc(OC)c(OC)c2)C(C)C)cc1OC (stereo not drawn) 10.9%
O=C(O)c1cccnc1Nc1cccc(C(F)(F)F)c1 -14.4%

Grouped by structure, the compounds so far containing a thiophene ring, fused or not (2)
inhibition, inactive:
CC(=O)N1N=C(c2cccs2)CC1c1ccc(C)o1 (stereo not drawn) -4.26%
Cc1ccsc1/C=N\NC(=O)c1ccc2c(c1)OCO2 -4.72%

Following part.

inhibition, active:
Nc1cccc2nc3ccccc3cc12 99.5%
COc1ccc(CCNc2ncnc3c2[nH]c2cc(OC)c(OC)cc23)cc1OC 68.2%
